Drawing on publication doi:10.1101/2022.11.06.515351, this text covers binding for three substances.

Amino acid sequences for entries named in this document (tags omitted).
UniProt P38873: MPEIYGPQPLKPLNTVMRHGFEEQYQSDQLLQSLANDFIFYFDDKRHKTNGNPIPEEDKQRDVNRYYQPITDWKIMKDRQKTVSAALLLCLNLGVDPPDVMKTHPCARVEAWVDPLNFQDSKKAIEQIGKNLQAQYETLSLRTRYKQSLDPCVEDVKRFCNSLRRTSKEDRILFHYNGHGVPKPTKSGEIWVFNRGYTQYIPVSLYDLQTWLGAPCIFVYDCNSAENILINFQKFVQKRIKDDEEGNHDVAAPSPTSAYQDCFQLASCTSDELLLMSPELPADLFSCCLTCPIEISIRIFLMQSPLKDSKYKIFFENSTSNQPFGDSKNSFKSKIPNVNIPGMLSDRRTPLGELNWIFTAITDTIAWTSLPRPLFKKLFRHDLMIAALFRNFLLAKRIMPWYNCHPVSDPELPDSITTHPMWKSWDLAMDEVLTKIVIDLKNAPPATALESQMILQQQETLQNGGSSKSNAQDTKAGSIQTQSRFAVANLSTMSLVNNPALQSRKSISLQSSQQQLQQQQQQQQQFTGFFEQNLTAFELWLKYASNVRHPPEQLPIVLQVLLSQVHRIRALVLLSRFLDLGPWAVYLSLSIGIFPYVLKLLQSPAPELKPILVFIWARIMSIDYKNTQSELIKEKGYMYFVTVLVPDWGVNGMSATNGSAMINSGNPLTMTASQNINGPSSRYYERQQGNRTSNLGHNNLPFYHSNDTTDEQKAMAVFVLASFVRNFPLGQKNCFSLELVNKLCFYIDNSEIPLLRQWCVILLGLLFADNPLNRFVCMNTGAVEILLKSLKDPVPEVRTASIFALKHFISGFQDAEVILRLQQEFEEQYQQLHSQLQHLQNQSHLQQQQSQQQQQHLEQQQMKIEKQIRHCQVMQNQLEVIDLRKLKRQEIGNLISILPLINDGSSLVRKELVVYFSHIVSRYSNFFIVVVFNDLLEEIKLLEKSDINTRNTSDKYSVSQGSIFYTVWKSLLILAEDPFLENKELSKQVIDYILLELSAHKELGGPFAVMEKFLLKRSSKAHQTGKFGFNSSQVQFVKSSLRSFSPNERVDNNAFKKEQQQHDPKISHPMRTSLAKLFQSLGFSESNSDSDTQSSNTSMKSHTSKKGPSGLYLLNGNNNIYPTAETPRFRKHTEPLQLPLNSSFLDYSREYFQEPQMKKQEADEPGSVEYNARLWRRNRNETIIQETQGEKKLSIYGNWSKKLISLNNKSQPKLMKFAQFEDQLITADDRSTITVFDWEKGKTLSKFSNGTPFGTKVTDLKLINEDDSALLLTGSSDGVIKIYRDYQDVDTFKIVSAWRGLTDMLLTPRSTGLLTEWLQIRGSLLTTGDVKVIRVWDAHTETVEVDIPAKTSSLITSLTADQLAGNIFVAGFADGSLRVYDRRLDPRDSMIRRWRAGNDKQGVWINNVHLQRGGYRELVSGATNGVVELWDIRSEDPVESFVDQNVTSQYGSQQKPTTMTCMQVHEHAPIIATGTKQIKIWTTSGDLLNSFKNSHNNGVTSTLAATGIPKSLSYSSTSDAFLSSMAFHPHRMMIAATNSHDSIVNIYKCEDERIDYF
UniProt Q00955: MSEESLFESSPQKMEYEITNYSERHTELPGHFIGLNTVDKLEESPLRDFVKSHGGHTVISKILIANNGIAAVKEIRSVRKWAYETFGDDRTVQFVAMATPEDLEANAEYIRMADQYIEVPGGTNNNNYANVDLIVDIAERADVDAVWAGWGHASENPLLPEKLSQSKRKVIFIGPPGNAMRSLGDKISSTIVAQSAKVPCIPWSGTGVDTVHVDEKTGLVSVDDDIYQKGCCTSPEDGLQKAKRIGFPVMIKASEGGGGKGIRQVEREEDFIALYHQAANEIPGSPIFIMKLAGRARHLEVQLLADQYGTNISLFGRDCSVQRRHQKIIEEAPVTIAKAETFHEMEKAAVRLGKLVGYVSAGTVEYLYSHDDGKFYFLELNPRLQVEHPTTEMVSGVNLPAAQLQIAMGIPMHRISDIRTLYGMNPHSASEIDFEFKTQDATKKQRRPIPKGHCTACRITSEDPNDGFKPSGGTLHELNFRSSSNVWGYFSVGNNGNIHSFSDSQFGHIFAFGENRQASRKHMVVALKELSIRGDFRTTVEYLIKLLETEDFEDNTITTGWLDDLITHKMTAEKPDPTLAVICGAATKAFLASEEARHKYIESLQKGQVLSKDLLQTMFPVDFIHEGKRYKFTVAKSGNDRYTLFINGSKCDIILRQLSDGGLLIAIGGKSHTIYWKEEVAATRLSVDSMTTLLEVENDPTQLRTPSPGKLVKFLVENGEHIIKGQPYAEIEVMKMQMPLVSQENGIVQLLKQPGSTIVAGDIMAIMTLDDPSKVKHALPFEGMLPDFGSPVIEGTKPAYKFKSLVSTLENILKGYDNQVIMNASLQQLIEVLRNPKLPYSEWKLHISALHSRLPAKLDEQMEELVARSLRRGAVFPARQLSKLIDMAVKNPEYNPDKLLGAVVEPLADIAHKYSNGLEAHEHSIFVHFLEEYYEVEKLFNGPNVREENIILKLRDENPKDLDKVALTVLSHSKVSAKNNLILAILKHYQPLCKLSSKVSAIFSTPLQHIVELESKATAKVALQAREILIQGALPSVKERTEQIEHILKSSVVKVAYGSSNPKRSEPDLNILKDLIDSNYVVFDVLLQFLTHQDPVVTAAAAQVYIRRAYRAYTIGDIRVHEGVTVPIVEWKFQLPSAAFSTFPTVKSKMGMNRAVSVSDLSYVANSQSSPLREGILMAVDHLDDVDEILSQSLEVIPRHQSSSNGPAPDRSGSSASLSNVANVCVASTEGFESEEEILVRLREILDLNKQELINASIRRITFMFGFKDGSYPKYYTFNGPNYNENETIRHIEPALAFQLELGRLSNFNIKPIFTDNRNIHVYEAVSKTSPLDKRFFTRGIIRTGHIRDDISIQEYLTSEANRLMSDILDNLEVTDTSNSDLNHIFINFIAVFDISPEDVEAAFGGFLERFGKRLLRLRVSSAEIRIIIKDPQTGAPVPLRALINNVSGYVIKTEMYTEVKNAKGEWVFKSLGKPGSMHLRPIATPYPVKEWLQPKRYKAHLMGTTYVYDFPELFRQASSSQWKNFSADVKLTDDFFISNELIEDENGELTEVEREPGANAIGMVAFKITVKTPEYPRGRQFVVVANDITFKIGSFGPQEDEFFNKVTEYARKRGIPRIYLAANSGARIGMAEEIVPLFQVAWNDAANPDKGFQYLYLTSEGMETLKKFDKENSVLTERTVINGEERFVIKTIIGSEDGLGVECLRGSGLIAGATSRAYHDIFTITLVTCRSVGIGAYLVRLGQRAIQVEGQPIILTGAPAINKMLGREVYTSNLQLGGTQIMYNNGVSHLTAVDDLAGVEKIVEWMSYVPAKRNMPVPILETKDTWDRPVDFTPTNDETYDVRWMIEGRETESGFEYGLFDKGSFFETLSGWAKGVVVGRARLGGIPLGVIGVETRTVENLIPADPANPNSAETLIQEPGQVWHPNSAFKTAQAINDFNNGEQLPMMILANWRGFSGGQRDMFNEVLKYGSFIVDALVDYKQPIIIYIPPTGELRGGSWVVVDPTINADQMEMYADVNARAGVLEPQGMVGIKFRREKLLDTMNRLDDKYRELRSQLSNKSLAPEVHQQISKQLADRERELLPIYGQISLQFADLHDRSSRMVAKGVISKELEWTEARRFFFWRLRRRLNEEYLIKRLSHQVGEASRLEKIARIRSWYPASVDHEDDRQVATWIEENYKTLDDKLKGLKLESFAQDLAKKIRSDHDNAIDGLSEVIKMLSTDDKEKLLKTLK
UniProt P07149: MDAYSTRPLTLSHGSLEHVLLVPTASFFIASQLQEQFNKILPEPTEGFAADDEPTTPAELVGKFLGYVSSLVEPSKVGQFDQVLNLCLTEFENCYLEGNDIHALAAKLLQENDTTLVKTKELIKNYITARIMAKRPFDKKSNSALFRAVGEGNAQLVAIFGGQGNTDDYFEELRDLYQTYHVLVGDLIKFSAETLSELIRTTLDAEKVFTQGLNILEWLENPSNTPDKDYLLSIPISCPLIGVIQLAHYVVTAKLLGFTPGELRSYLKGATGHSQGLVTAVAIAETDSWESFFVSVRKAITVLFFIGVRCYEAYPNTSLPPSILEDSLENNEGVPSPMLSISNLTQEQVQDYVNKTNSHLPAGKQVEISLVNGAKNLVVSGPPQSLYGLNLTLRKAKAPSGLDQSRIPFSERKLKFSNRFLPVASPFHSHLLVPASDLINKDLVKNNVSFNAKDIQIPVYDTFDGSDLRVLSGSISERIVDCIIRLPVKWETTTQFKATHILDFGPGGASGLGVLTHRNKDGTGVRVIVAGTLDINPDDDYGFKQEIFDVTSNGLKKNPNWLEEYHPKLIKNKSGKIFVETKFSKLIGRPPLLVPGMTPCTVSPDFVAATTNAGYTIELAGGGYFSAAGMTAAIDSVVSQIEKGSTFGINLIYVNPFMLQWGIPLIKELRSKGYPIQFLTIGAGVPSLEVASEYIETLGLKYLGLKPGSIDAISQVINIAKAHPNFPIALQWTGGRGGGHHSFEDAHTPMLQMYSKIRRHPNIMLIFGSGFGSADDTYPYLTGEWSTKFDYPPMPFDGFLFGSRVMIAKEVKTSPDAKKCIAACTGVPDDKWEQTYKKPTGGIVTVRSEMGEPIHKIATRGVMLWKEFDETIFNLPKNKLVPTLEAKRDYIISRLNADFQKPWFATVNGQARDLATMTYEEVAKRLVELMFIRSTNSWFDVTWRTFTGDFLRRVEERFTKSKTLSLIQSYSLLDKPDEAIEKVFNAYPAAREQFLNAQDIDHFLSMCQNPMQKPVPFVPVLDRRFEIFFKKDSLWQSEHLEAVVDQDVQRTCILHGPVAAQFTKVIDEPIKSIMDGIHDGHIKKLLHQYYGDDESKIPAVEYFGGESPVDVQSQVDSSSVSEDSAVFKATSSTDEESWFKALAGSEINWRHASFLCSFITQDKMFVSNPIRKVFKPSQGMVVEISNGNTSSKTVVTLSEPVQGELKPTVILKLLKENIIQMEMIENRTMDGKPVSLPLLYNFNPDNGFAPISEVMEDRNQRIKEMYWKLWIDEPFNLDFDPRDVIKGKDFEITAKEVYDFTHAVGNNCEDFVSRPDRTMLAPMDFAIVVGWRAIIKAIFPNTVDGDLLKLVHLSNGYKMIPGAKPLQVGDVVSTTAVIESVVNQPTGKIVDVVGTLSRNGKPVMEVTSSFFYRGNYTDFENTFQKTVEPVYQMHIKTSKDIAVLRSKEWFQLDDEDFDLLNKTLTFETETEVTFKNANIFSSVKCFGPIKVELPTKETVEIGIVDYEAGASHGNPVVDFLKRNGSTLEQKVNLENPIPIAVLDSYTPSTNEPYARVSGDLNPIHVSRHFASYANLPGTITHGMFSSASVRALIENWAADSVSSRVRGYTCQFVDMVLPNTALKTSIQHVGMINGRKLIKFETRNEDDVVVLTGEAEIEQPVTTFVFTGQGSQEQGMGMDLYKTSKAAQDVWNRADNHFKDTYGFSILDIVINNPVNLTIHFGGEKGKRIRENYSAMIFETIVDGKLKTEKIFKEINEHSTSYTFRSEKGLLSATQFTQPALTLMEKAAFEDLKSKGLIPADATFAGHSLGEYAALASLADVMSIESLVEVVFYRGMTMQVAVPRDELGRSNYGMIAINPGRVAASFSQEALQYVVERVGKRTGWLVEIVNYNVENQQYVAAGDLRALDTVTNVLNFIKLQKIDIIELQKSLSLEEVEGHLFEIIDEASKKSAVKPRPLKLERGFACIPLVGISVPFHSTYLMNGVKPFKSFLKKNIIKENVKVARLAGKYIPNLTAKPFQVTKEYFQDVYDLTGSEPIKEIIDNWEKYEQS

No constants are given. Whether binding was seen depends on the method and setting. In cells and extracts the contact can be indirect. Some binding calls cover weakened binding; strength is not graded here. For some of these results: Sequences can lack the tags named with a protein.

What all share (experiment): co-IP
The target in assay [1] is Kog1-HA3 (yeast TORC1 subunit Kog1, genomically HA3-tagged) (yeast) (UniProt P38873).
In assay [2] the target is T1, Tco89-HA3 (yeast TORC1 subunit Tco89, genomically HA3-tagged) (yeast) (UniProt Q08921).
T1 sequence: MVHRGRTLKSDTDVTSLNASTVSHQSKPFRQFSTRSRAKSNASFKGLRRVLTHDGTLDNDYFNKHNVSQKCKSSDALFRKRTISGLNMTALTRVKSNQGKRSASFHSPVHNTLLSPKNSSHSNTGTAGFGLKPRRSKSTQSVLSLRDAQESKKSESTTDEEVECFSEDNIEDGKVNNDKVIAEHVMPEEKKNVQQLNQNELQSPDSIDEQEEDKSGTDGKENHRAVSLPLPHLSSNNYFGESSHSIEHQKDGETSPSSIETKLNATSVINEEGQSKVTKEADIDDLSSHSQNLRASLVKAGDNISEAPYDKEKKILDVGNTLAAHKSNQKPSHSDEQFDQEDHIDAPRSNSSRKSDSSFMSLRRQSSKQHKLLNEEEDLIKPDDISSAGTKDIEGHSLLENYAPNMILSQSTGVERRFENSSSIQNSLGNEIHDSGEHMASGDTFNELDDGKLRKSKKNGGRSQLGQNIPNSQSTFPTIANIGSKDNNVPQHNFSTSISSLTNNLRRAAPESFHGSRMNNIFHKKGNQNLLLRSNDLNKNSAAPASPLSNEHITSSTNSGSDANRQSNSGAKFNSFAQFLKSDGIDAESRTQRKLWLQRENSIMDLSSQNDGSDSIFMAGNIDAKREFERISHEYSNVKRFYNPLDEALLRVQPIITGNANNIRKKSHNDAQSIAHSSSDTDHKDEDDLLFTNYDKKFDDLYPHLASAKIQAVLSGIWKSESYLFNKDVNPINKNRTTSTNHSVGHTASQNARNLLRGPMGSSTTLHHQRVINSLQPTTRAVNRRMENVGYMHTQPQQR

Assay [3] has as its target Tor1 R2105/R2107 alanine mutant (yeast) (UniProt P35169).

As to “Acc1-myc13 (yeast acetyl-CoA carboxylase, genomically tagged) (from UniProt Q00955 1-2233) (enzyme)”, the binding result in assay [1] and in assay [2] was “binds” each time. For the substance “Kog1 (construct not stated, co-immunoprecipitation with Tor1) (from UniProt P38873 1-1557)”, the binding result in assay [3] is listed as “binds”. As for “Fas1-myc13 (Fas1 subunit of the yeast fatty acid synthase complex, genomically tagged) (from UniProt P07149 1-2051) (enzyme)”, the binding entry in assay [1] was “binds”.
